Series [1] has as its system Stf76 (Sulfolobus islandicus plasmid-virus pSSVx). In words: EMSA. The following applies: EMSA: 20 mM Tris-acetate pH 8.0, 50 mM K acetate, 10 mM Mg acetate, 1 mM DTT, 5% glycerol, 50 C protein pre-incubation, binding 37 C, recombinant protein, protein details: C-terminal His6 (LEHHHHHH).
Series [2] shares this test system. In words: CD. To be noted: change up to 2:1 protein:DNA, 20 C; CD: 10 mM Na phosphate, 50 mM NaCl pH 7.0, 20 C; recombinant protein; protein details: C-terminal His6 (LEHHHHHH).
The test system is the same in series [3]. In words: ITC. The following applies: second event (K2) at about 5:1 protein:DNA, only stated as micromolar range; ITC: 20 mM Na phosphate, 50 mM NaCl pH 7.0, 22 C; recombinant protein; protein details: C-terminal His6 (LEHHHHHH).
Series [4] has the same test system. In words: NMR CSP (15N HSQC). The following applies: 15N-labeled Stf76, pH 5.5, sub-stoichiometric DNA; NMR: 20 mM Na phosphate pH 5.5, 50 mM NaCl; recombinant protein; protein details: C-terminal His6 (LEHHHHHH).
Series [5] has the same test system. In words: DNA thermal melting. To be noted: DNA stabilized by 10 C at 2:1 protein:DNA; recombinant protein; protein details: C-terminal His6 (LEHHHHHH).
The test system is the same in series [6]. In words: intrinsic fluorescence. The following applies: decrease at 355 nm (Trp55) up to 2:1 protein:DNA; recombinant protein; protein details: C-terminal His6 (LEHHHHHH).
Series [7] has the same test system. In words: static light scattering. To be noted: 1:1 and 2:1 protein:DNA complexes; recombinant protein; protein details: C-terminal His6 (LEHHHHHH).

For at least one entry, the source does not settle the construct or the ends of the probe. For some assays here: A negative result means that nothing was seen under these conditions. For some assays here: Weaker means in comparison with the reference protein, sequence or condition of that experiment.

Consider “GGAAACAGTATTAATAAAGTGCCGTTCCTATTACC (double strand) [probe A'*]”, for which the binding result in series [1] (up to 51.6 uM Stf76, 1 ug salmon sperm DNA, label: 32P) was “no binding”.
As for “GGAAACAGTATTAATAAAGTGTTAATCCTATTACCC (double strand) [probe A' (35 bp-site A)]”, the binding result is on record as “binds” in series [2]; “binds more weakly” in series [3]; “binds” in series [1] (1 ug salmon sperm DNA); “binds” in series [4]; “binds” in series [5]; “binds” in series [6]. Besides, the binding result in series [7] is listed as “binds”.

The record behind these values is publication PMC4027180.
